According to US20250108036A1, “COMPOSITIONS FOR REMOVING SENESCENT CELLS AND USES THEREOF” (LIFECEUTIX CO., LTD., priority 2021, published 2025):
The name of at least one read-out is uncertain.

What was measured:
[1] = tested on: senescent foreskin cells; experiment: survival of senescent foreskin cells treated with medium supernatant (secreted fluid) of compound-killed cells (Example 13, Tables 68, 69); format: cell-based, human; settings: culture medium supernatant from dying senescent cells treated with compound at 30 μM, 90 μM or 270 μM
[2] = open field test in naturally aged mice treated with test compounds (Example 15, Table 71); format: in vivo, C57BL6J mice; settings: naturally aged mice treated with test compound

SMILES | Survival [1] | Open Field Test Time in Center (%) [2]
CCCC[C@H]1Cc2c([nH]c3ccccc23)[C@H](c2ccc(NC3CCC3)cc2)N1C(=O)C#C[Si](C)(C)C [LX-422] | 47.8 | 
C=C1C(=O)C2CCN1CC2.Cl [LX-702, 2-Methylene-3-quinuclidinone] | 59.1 | 
CCOc1ccccc1-n1c(CN2CCNCC2)nc2ccccc2c1=O [LX-1002] |  | 210.4 (±15.2) %
CCOc1cc2ncc(C#N)c(Nc3ccc(OCc4ccccn4)c(Cl)c3)c2cc1NC(=O)/C=C/CN(C)C [LX-1608, Neratinib, reference compound] | 62.4 | 
